Laboratory results from the supplement of paper PMC8728848.
This is one part of the list.

What was measured:
Experiment in all cases: glycan array binding signal (z-score within array); higher = stronger binding
Conditions in all cases: glycan notation: IUPAC condensed, linker removed
[1] = target: Neu5Ac(a2-3)Gal(b1-4)GlcNAc
Method in brief: (§1)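 The binding signal is a Z-score computed within each array. Data were drawn from 3228 arrays in the Consortium for Functional Glycomics database, restricted to those with a known protein sequence. Scores were averaged over arrays of the same protein sequence at different concentrations or buffers, and over linkers, and negative values can be taken as non-binding.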

[2] = target: Neu5Ac(a2-3)Gal(b1-4)GlcNAc(b1-2)Man
Method in brief: as §1

[3] = target: Neu5Ac(a2-3)Gal(b1-4)GlcNAc(b1-2)Man(a1-3)[GlcNAc(b1-4)][Neu5Ac(a2-3)Gal(b1-4)GlcNAc(b1-2)Man(a1-6)]Man(b1-4)GlcNAc(b1-4)GlcNAc
Method in brief: as §1

[4] = target: Neu5Ac(a2-3)Gal(b1-4)GlcNAc(b1-2)Man(a1-3)[Neu5Ac(a2-3)Gal(b1-4)GlcNAc(b1-2)Man(a1-6)]Man(b1-4)GlcNAc(b1-4)GlcNAc
Method in brief: as §1

[5] = target: Neu5Ac(a2-3)Gal(b1-4)GlcNAc(b1-2)Man(a1-3)[Neu5Ac(a2-3)Gal(b1-4)GlcNAc(b1-2)Man(a1-6)]Man(b1-4)GlcNAc(b1-4)[Fuc(a1-6)]GlcNAc
Method in brief: as §1

[6] = target: Neu5Ac(a2-3)Gal(b1-4)GlcNAc(b1-2)Man(a1-3)[Neu5Ac(a2-6)Gal(b1-4)GlcNAc(b1-2)Man(a1-6)]Man(b1-4)GlcNAc(b1-4)GlcNAc
Method in brief: as §1

[7] = target: Neu5Ac(a2-3)Gal(b1-4)GlcNAc(b1-2)[Neu5Ac(a2-3)Gal(b1-4)GlcNAc(b1-4)]Man(a1-3)[GlcNAc(b1-4)][Neu5Ac(a2-3)Gal(b1-4)GlcNAc(b1-2)[Neu5Ac(a2-3)Gal(b1-4)GlcNAc(b1-6)]Man(a1-6)]Man(b1-4)GlcNAc(b1-4)GlcNAc
Method in brief: as §1

[8] = target: Neu5Ac(a2-3)Gal(b1-4)GlcNAc(b1-2)[Neu5Ac(a2-3)Gal(b1-4)GlcNAc(b1-4)]Man(a1-3)[GlcNAc(b1-4)][Neu5Ac(a2-3)Gal(b1-4)GlcNAc(b1-4)Man(a1-6)]Man(b1-4)GlcNAc(b1-4)GlcNAc
Method in brief: as §1

[9] = target: Neu5Ac(a2-3)Gal(b1-4)GlcNAc(b1-2)[Neu5Ac(a2-3)Gal(b1-4)GlcNAc(b1-6)]Man(a1-6)[Neu5Ac(a2-3)Gal(b1-4)GlcNAc(b1-2)Man(a1-3)]Man(b1-4)GlcNAc(b1-4)GlcNAc
Method in brief: as §1

[10] = target: Neu5Ac(a2-3)Gal(b1-4)GlcNAc(b1-2)[Neu5Ac(a2-3)Gal(b1-4)GlcNAc(b1-6)]Man(a1-6)[Neu5Ac(a2-3)Gal(b1-4)GlcNAc(b1-2)Man(a1-3)][GlcNAc(b1-4)]Man(b1-4)GlcNAc(b1-4)GlcNAc
Method in brief: as §1

[11] = target: Neu5Ac(a2-3)Gal(b1-4)GlcNAc(b1-3)Gal
Method in brief: as §1

[12] = target: Neu5Ac(a2-3)Gal(b1-4)GlcNAc(b1-3)Gal(b1-3)GlcNAc
Method in brief: as §1

[13] = target: Neu5Ac(a2-3)Gal(b1-4)GlcNAc(b1-3)Gal(b1-4)GlcNAc
Method in brief: as §1

[14] = target: Neu5Ac(a2-3)Gal(b1-4)GlcNAc(b1-3)Gal(b1-4)GlcNAc(b1-2)Man(a1-3)[Neu5Ac(a2-3)Gal(b1-4)GlcNAc(b1-3)Gal(b1-4)GlcNAc(b1-2)Man(a1-6)]Man(b1-4)GlcNAc(b1-4)GlcNAc
Method in brief: as §1

[15] = target: Neu5Ac(a2-3)Gal(b1-4)GlcNAc(b1-3)Gal(b1-4)GlcNAc(b1-3)Gal(b1-4)GlcNAc
Method in brief: as §1

[16] = target: Neu5Ac(a2-3)Gal(b1-4)GlcNAc(b1-3)Gal(b1-4)GlcNAc(b1-3)Gal(b1-4)GlcNAc(b1-2)Man(a1-3)[Neu5Ac(a2-3)Gal(b1-4)GlcNAc(b1-3)Gal(b1-4)GlcNAc(b1-3)Gal(b1-4)GlcNAc(b1-2)Man(a1-6)]GalNAc
Method in brief: as §1

[17] = target: Neu5Ac(a2-3)Gal(b1-4)GlcNAc(b1-3)Gal(b1-4)GlcNAc(b1-3)GalNAc
Method in brief: as §1

[18] = target: Neu5Ac(a2-3)Gal(b1-4)GlcNAc(b1-3)Gal(b1-4)GlcNAc(b1-3)[Neu5Ac(a2-3)Gal(b1-4)GlcNAc(b1-3)Gal(b1-4)GlcNAc(b1-6)]GalNAc
Method in brief: as §1

[19] = target: Neu5Ac(a2-3)Gal(b1-4)GlcNAc(b1-3)Gal(b1-4)GlcNAc(b1-6)[Gal(b1-3)]GalNAc
Method in brief: as §1

[20] = target: Neu5Ac(a2-3)Gal(b1-4)GlcNAc(b1-3)Gal(b1-4)[Fuc(a1-3)]GlcNAc
Method in brief: as §1

[21] = target: Neu5Ac(a2-3)Gal(b1-4)GlcNAc(b1-3)GalNAc
Method in brief: as §1

[22] = target: Neu5Ac(a2-3)Gal(b1-4)GlcNAc(b1-3)[Neu5Ac(a2-3)Gal(b1-4)GlcNAc(b1-6)]GalNAc
Method in brief: as §1

[23] = target: Neu5Ac(a2-3)Gal(b1-4)GlcNAc(b1-6)GalNAc
Method in brief: as §1

[24] = target: Neu5Ac(a2-3)Gal(b1-4)GlcNAc(b1-6)[Gal(b1-3)]GalNAc
Method in brief: as §1

[25] = target: Neu5Ac(a2-3)Gal(b1-4)GlcNAc(b1-6)[Neu5Ac(a2-3)Gal(b1-3)]GalNAc
Method in brief: as §1

[26] = target: Neu5Ac(a2-3)Gal(b1-4)GlcNAc6S
Method in brief: as §1

[27] = target: Neu5Ac(a2-3)Gal(b1-4)[Fuc(a1-3)]GlcNAc
Method in brief: as §1

[28] = target: Neu5Ac(a2-3)Gal(b1-4)[Fuc(a1-3)]GlcNAc(b1-2)Man
Method in brief: as §1

[29] = target: Neu5Ac(a2-3)Gal(b1-4)[Fuc(a1-3)]GlcNAc(b1-3)Gal
Method in brief: as §1

[30] = target: Neu5Ac(a2-3)Gal(b1-4)[Fuc(a1-3)]GlcNAc(b1-3)Gal(b1-4)GlcNAc
Method in brief: as §1

[31] = target: Neu5Ac(a2-3)Gal(b1-4)[Fuc(a1-3)]GlcNAc(b1-3)Gal(b1-4)[Fuc(a1-3)]GlcNAc(b1-3)Gal(b1-4)[Fuc(a1-3)]GlcNAc
Method in brief: as §1

[32] = target: Neu5Ac(a2-3)Gal(b1-4)[Fuc(a1-3)]GlcNAc(b1-3)GalNAc
Method in brief: as §1

[33] = target: Neu5Ac(a2-3)Gal(b1-4)[Fuc(a1-3)]GlcNAc(b1-6)[Gal(b1-3)]GalNAc
Method in brief: as §1

[34] = target: Neu5Ac(a2-3)Gal(b1-4)[Fuc(a1-3)]GlcNAc(b1-6)[Neu5Ac(a2-3)Gal(b1-3)]GalNAc
Method in brief: as §1

[35] = target: Neu5Ac(a2-3)Gal(b1-4)[Fuc(a1-3)]GlcNAc6S
Method in brief: as §1

[36] = target: Neu5Ac(a2-3)Gal6S(b1-4)GlcNAc
Method in brief: as §1

[37] = target: Neu5Ac(a2-3)Gal6S(b1-4)[Fuc(a1-3)]GlcNAc
Method in brief: as §1

[38] = target: Neu5Ac(a2-3)GalNAc
Method in brief: as §1

B1: Pbx2CASH domain (Cryptococcus neoformans) (protein)
chain: GIPGPNRLYRLSGPIIFTAADQEIATYGYPTGSERAVLRVEGRNTATAIQGDCRRCARVSVKNLVVDGNRKKLGRMRDFQLATGLVVLGGNEGQSIQNSWIKNPRGFTAIHIREGDKLQCSGARVEKNEIGPVGEEYDPEKDGDDPEMSPLGRPLADGVSIACRDSFIRDNTFRDNTDAAIVVYCSPGTLIHA
glycan array binding signal (z-score) [1]: -0.512 | glycan array binding signal (z-score) [2]: 0.907 | glycan array binding signal (z-score) [3]: 0.795 | glycan array binding signal (z-score) [4]: -0.344 | glycan array binding signal (z-score) [5]: -0.448 | glycan array binding signal (z-score) [6]: 0.094 | glycan array binding signal (z-score) [7]: 0.012 | glycan array binding signal (z-score) [8]: -0.173 | glycan array binding signal (z-score) [9]: -0.2 | glycan array binding signal (z-score) [10]: 0.05 | glycan array binding signal (z-score) [11]: 0.578 | glycan array binding signal (z-score) [12]: -0.059 | glycan array binding signal (z-score) [13]: -0.68 | glycan array binding signal (z-score) [14]: 0.281 | glycan array binding signal (z-score) [15]: -0.341 | glycan array binding signal (z-score) [16]: 0.561 | glycan array binding signal (z-score) [17]: -0.534 | glycan array binding signal (z-score) [18]: 0.079 | glycan array binding signal (z-score) [19]: 1.4 | glycan array binding signal (z-score) [20]: -0.714 | glycan array binding signal (z-score) [21]: -0.563 | glycan array binding signal (z-score) [22]: -0.817 | glycan array binding signal (z-score) [23]: -0.514 | glycan array binding signal (z-score) [24]: -0.669 | glycan array binding signal (z-score) [25]: -0.346 | glycan array binding signal (z-score) [26]: -0.48 | glycan array binding signal (z-score) [27]: -0.636 | glycan array binding signal (z-score) [28]: -0.171 | glycan array binding signal (z-score) [29]: -0.502 | glycan array binding signal (z-score) [30]: 0.378 | glycan array binding signal (z-score) [31]: -0.779 | glycan array binding signal (z-score) [32]: 1.32 | glycan array binding signal (z-score) [33]: 0.909 | glycan array binding signal (z-score) [34]: 1.01 | glycan array binding signal (z-score) [35]: -0.739 | glycan array binding signal (z-score) [36]: 0.099 | glycan array binding signal (z-score) [37]: -0.748 | glycan array binding signal (z-score) [38]: -0.765
